PubChem BioAssay AID1259254 | NCATS | 2017
This is a random part of about 59,000 deposited reagents. About 1,550 of them (2.6%) were called active. 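G2 share is only a proxy for re-replication; each gene was hit by three separate siRNAs, and active genes were retested.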 Raw values are not corrected between plates. Unmarked entries are inactive. The numbers tell different reagents against one gene apart. No sequences are given here. Not given: the amount of reagent.

Purpose: 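Gene knock-downs that lead to re-replication, shown by excess G2 DNA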 (primary screen)
Cell system: human HCT116 colorectal cancer cells
Reagent: single siRNA against human genes
Duration: 3 days
Measured: 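Nuclei stained with Hoechst and imaged; cell-cycle phase assigned by DNA content; G2 share scaled per plate, non-targeting siRNA 0%, GMNN siRNA 100%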
Reading the numbers: G2 robust z-score and G2 cells, % of GMNN control: higher = more G2 cells, more excess DNA replication; raw share of cells in G2: higher = larger share of cells with G2 DNA content
Active means: 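Active siRNAs have a G2 robust z of 5 or more median absolute deviations over the median, which in these data means about 38% or higher of GMNN control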

gene,reagent,G2 robust z-score,"G2 cells, % of GMNN control",raw share of cells in G2 (%)
MEN1,1,0.24,4.65,6.95
MEN1,2,-0.705,-1.99,3.44
MEN1,3,-1.05,-4.44,1.75
MARCO,1,-0.636,-1.51,4.17
MARCO,2,-0.958,-3.77,3.94
MARCO,3,0.182,4.25,6.47
ABCC9,1,3.74,29.3,13.2
ABCC9,2,3.6,28.3,16.2
ABCC9,3,0.0444,3.28,6.44
PPP1CB,1,3.9,30.4,14.7
PPP1CB,2,1.24,11.7,7.81
PPP1CB,3,3.68,28.8,12.2
RPL7AP66,1,-0.183,1.68,4.35
RPL7AP66,2,2.09,17.6,11.1
RPL7AP66,3,2.14,18,12.4
SCAF1,1,-0.498,-0.538,4.13
SCAF1,2,3.49,27.5,17.6
SCAF1,3,0.866,9.06,5.9
SETD9,1,0.652,7.55,7.02
SETD9,2,-0.583,-1.14,2.74
SETD9,3,-0.874,-3.18,1.43
JAM2,1,0.699,7.89,7.46
JAM2,2,-0.0958,2.29,5.56
JAM2,3,-0.0582,2.56,3.84
PHYHD1,1,0.0891,3.59,6.21
PHYHD1,2,4.71,36.1,23.2
PHYHD1,3,-0.983,-3.95,3.26
MYO1D,1,-0.0457,2.65,4.07
MYO1D,2,0.273,4.89,7.41
MYO1D,3,6.14 (active),46.1,23.2
MLF1,1,0.229,4.58,7.29
MLF1,2,0.468,6.26,5.26
MLF1,3,3.73,29.2,16.7
RPL15P17,1,6.96 (active),52,23.3
RPL15P17,2,1.27,11.9,7.08
RPL15P17,3,1.07,10.5,7.57
IL7,1,-1.06,-4.48,3.98
IL7,2,-0.138,2,4.93
IL7,3,1.77,15.4,10.6
EBAG9,1,0.217,4.49,7.12
EBAG9,2,-0.514,-0.652,3.64
EBAG9,3,-1.2,-5.49,1.41
DUX5,1,0.787,8.51,10
DUX5,2,0.142,3.97,5.5
DUX5,3,0.087,3.58,5.16
STK25,1,1.04,10.3,8.8
STK25,2,0.325,5.26,7.1
STK25,3,0.149,4.01,4.97
DMRT1,1,-1.2,-5.49,2.99
DMRT1,2,1.04,10.3,7.64
DMRT1,3,0.759,8.31,7.93
SPTA1,1,2.34,19.4,13.7
SPTA1,2,-0.99,-4,2.31
SPTA1,3,1,10,6.89
LIG1,1,-0.0571,2.57,4.04
LIG1,2,-0.847,-2.99,4.2
LIG1,3,-0.84,-2.94,4.3
SOX4,1,-1.16,-5.21,3.93
SOX4,2,-0.313,0.764,4.21
SOX4,3,-0.224,1.39,5.02
ABCA4,1,0.653,7.56,7.76
ABCA4,2,1.05,10.3,7.84
ABCA4,3,0.8,8.6,7.65
MMP25,1,-0.466,-0.313,5.47
MMP25,2,4.98,38,17
MMP25,3,2.65,21.6,12.3
MAGEH1,1,-0.822,-2.82,2.78
MAGEH1,2,0.119,3.8,5.99
MAGEH1,3,0.0636,3.41,4.33

An excerpt from above, reduced to “G2 robust z-score”.
ABCC9 #1 = 3.74
ABCC9 #2 = 3.6
ABCC9 #3 = 0.0444
PPP1CB #1 = 3.9
PPP1CB #2 = 1.24
